Reference: article PMC11288445
Results are given in words; binding and its absence hold for the method and conditions named. For some assays here: Binding seen in cells or lysates may run through a third protein. Some results given as binding are weak or reduced against the parent protein; the word gives no strength. Sequences can lack the tags named with a protein.

T1: 6xHis-TCP24 (Arabidopsis thaliana TCP24, N-terminal six-histidine tag) (Arabidopsis thaliana) (UniProt Q9C758)
T1 sequence: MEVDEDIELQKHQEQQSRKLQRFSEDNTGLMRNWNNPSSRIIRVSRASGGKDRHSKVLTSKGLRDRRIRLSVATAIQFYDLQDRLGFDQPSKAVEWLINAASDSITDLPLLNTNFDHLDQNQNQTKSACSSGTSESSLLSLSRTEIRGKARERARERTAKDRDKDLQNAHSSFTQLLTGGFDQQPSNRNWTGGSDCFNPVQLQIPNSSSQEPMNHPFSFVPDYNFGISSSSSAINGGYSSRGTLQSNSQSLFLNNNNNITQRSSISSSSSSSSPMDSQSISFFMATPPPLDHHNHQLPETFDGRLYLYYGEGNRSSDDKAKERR


Assays:
[1] = biological target: T1, 6xHis-TCP24 (Arabidopsis thaliana TCP24, N-terminal six-histidine tag) (Arabidopsis thaliana); assay: far-Western, overlay or dot blot; 6xHis-tagged proteins resolved on 4-20% gels and transferred to nitrocellulose; blots overlayed with 15 μg soluble protein extracts from E. coli expressing GST or GST-TCP24 overnight at 4°C; detected with anti-GST antibody; only the target purified
[2] = biological target: TCP24 fused to the N- or C-terminal portion of YFP (BiFC) (Arabidopsis thaliana) (UniProt Q9C758); assay: split reporter; BiFC with N- and C-terminal portions of YFP in N. benthamiana epidermal cells after agroinfiltration; fluorescence microscopy, H4-RFP as nuclear marker

| binding [1] | binding [2] | Binder |
| --- | --- | --- |
| binds |  | GST-TCP24 (Arabidopsis thaliana TCP24, N-terminal glutathione-S-transferase fusion, from E. coli) (protein, UniProt Q9C758 1-324) MEVDEDIELQKHQEQQSRKLQRFSEDNTGLMRNWNNPSSRIIRVSRASGGKDRHSKVLTSKGLRDRRIRLSVATAIQFYDLQDRLGFDQPSKAVEWLINAASDSITDLPLLNTNFDHLDQNQNQTKSACSSGTSESSLLSLSRTEIRGKARERARERTAKDRDKDLQNAHSSFTQLLTGGFDQQPSNRNWTGGSDCFNPVQLQIPNSSSQEPMNHPFSFVPDYNFGISSSSSAINGGYSSRGTLQSNSQSLFLNNNNNITQRSSISSSSSSSSPMDSQSISFFMATPPPLDHHNHQLPETFDGRLYLYYGEGNRSSDDKAKERR |
|  | binds | TCP24 fused to the N- or C-terminal portion of YFP (BiFC) (protein, UniProt Q9C758 1-324) MEVDEDIELQKHQEQQSRKLQRFSEDNTGLMRNWNNPSSRIIRVSRASGGKDRHSKVLTSKGLRDRRIRLSVATAIQFYDLQDRLGFDQPSKAVEWLINAASDSITDLPLLNTNFDHLDQNQNQTKSACSSGTSESSLLSLSRTEIRGKARERARERTAKDRDKDLQNAHSSFTQLLTGGFDQQPSNRNWTGGSDCFNPVQLQIPNSSSQEPMNHPFSFVPDYNFGISSSSSAINGGYSSRGTLQSNSQSLFLNNNNNITQRSSISSSSSSSSPMDSQSISFFMATPPPLDHHNHQLPETFDGRLYLYYGEGNRSSDDKAKERR |
